# Library screening results

The chains behind the UniProt entries cited, without tags or fusion partners.
UniProt E9BF75, entry or part of it: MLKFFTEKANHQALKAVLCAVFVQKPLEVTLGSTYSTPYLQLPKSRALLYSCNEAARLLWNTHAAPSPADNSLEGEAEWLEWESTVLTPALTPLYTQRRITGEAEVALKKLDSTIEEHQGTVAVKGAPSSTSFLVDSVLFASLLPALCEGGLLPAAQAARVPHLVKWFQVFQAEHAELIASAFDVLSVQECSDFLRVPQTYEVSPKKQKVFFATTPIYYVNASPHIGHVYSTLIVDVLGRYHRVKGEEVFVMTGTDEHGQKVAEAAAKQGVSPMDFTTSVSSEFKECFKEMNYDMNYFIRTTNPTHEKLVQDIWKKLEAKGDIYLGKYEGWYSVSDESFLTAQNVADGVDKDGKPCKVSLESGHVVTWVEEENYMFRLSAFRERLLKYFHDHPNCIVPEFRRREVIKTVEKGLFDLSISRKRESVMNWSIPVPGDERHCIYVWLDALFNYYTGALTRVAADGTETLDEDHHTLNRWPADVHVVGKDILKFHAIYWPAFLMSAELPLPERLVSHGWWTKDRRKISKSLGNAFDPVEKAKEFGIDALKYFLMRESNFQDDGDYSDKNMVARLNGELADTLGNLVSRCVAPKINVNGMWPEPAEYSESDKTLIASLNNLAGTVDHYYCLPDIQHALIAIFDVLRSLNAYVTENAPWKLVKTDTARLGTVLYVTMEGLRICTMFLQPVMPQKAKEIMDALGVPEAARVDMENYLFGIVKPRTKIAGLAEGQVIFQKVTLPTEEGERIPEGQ

Measurements from “University of Dundee, Small-Polar-MMV Screening Library” (2021), ChEMBL document CHEMBL3988442.

LdMetRS: 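Methionyl-tRNA synthetase (putative), Leishmania donovani (UniProt E9BF75). Primary screen of methionyl-tRNA synthetase; the read-out is not stated. The test concentration is not given. The values are filed as inhibition. About 68,000 compounds were tested under these conditions; 0.035% (about 24) showed 50% or more at least once.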
Mtb heat-shock: 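Assay on Mycobacterium tuberculosis, filed only as a heat shock assay from Cornell; the read-out is not stated. The concentration is filed as 10 mM, unlikely as a test dose, so the dose is not known. The record gives no direction; compounds that gave an IC50 in retests scored well above the rest, so higher reads as stronger inhibition. Size under these conditions: about 69,000 compounds, about 930 of them at 50% or above in at least one test.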

Results are percentages, as filed.
The record does not define 0% and 100%; most values in the screen are far below 50% and negative numbers occur (in some assays of this library far below -100).
This is an unselected part of the compounds tested.
A dash means the value is not listed here; it may have been measured.

Compound,LdMetRS,Mtb heat-shock
CC(=O)NC(C)CC(=O)NCc1cccnc1Oc1ccccc1C (centres undefined),18.58,9.78
Cc1ccc(CN2CCn3c(C(=O)N(C)C)cnc3C2)cc1,1.493,-
O=S(=O)(Cc1ccccc1)NCC1CCN(c2cnccn2)CC1,11.76,16.61
Cc1nn(CCNC(C)Cn2cncn2)c(C)c1Cl (centres undefined),8.075,6.968
Cc1cc(C2CCCN(C(=O)c3ccc(Cl)o3)C2)n[nH]1 (centres undefined),18.29,-4.913
COc1ccc(OCCNc2cccc(C(=O)N3CCOCC3)c2)cc1,12.26,-27.52
CCN(CC)C(=O)c1ccn(COc2c(Cl)cccc2Cl)n1,4.774,-10.52
O=C1O[C@@H]2CN(c3ncccn3)C[C@@H]2N1CCCc1ccc(F)cc1,8.933,-
c1cnc2ccc(C[C@@H]3CC[C@H](CN4CCCOCC4)O3)cc2c1,17.35,-26.39
c1cnn(Cc2ccc(CN3CCC4(CCCNC4)C3)cc2)c1 (centres undefined),2.676,-42.87
CCc1ncc(C(=O)N2C[C@@H](C)O[C@@H](C)C2)cn1,12.32,-8.226
COc1cccc(C2CCN(c3ccc4cc[nH]c4n3)C2)c1OC (centres undefined),27.37,36.99
COc1ccc(CCC2CCCCN2)cc1 (centres undefined),9.162,-
CCCn1nc2c(cc1=O)CN(CC(=O)Nc1cc(C)no1)CC2,13.86,6.621
O=C(c1ccc[nH]1)N1CCOC2(COCCN(c3cncnc3)C2)C1 (centres undefined),11.68,-2.052
Cc1ccc(CN2CC[C@]3(C[C@H](OCc4ccccn4)CO3)C2)o1,19.88,-
[H][C@]12C[C@@H](Cn3cncn3)N(C(C)=O)[C@@]1([H])CCN(c1ncccn1)C2,-,8.179
CNc1nc(C(=O)NCc2cccnc2N(C)C)cs1,18.35,-5.043
CN1CCOC(CNCc2nc(-c3ccoc3)no2)C1 (centres undefined),5.928,12.54
O=C(NC1CC1)[C@@]12CCO[C@@H]1CCN(Cc1ccc3c(c1)OCO3)C2,8.197,-
Cc1cc(C2CCCN(C(=O)COc3ccc(F)cc3)C2)n[nH]1 (centres undefined),17.15,-13.88
COC(=O)CCN(C)Cc1cc(Br)cs1,11.55,-15.41
COCCCNCc1cc(O)c2cc(C)cc(C)c2n1,18.75,2.124
CC(C)CNC(=O)c1nc(COc2ccc3c(c2)OCO3)no1,6.977,15.06
COc1ccc(N2CCCC3(C2)CN(c2ncccn2)CCO3)cc1 (centres undefined),12.41,17.8
O=C(NC[C@H]1CC[C@H](c2nnc(-c3cccnc3)o2)CC1)C1CC1,0.6329,14.14
CCc1nn(C)c(Cl)c1CN1CCC(Cc2nncn2C)CC1,8.591,4.385
CN1CCC(c2cncc(Cl)n2)CC1,14.36,-5
O=C(Cc1cccs1)NCC1(O)CCSCC1,13.77,25.42
CO[C@H]1CN(C(C)C)C[C@@H]1NC(=O)Nc1cccc(SC)c1,5.363,-18.73
CCCC(=O)N1CCC(Nc2nc(O)cc(-c3ccsc3)n2)CC1,12.89,-1.132
COc1cccc(CCNC(=O)c2ccc(=O)n(C)c2)c1,18.37,-27.9
CSc1ncc(CN2C[C@H]3CC[C@@H]2CN(C2CCOCC2)C3)cn1,25.09,-
O=C(NCc1cccnc1)c1ccc2nccn2c1,4,-33.51
CSC(C)C(=O)N1CCCN(Cc2cnn(C(C)C)c2)CC1 (centres undefined),9.15,10.75
CC(C)N(C(=O)CCc1ccco1)C1CCOCC1,14.57,-1.785
CSC(C)(C)CNC(=O)NC1CCN(CC(F)F)CC1,12.73,-24.81
CC(C)Nc1nc2c(s1)C(=O)CN(CC1CC1)C2,5.097,5.756
O=c1ccc2c([nH]1)CCC(NS(=O)(=O)C1CC1)C2 (centres undefined),3.297,18.82
O=C(O)C(F)(F)F.[H][C@@]12C[C@@H](c3nc(C)no3)CN(Cc3cc(C)c(C)o3)[C@]1([H])CCO2,-,7.887
O=C(O)C(F)(F)F.O=C(O)C(F)(F)F.[H][C@@]12CN(Cc3ccc(F)cc3)C[C@]1([H])OCCN2c1ccc(C)nn1,-,-13.42
CCc1oc(C(=O)N[C@@H]2c3ccccc3C[C@@H]2O)cc1C,7.588,9.754
Cc1cccc2[nH]c(COCC(=O)N3CCCn4cncc4C3)nc12,4.092,5.747
CC(C)CC(CO)NC(=O)NCc1csc(N(C)C)n1 (centres undefined),13.4,16.63
COc1ccc(NC(C)C(=O)N2CCN(c3ccccc3)CC2)cn1 (centres undefined),10.33,-14.83
CC(=O)c1nn(-c2cccc(Cl)c2)c(C)c1C(C)=O,6.434,-0.8867
c1ccc2c(c1)CC(n1ccnc1-c1cc3n(n1)CCCNC3)CO2 (centres undefined),15.08,-17.78
O=C(NCc1cccnc1N1CCc2ccccc2C1)c1cnc[nH]1,8.303,-8.289
CN(C)Cc1ccnc(NS(=O)(=O)Cc2cccc(F)c2)c1,13.5,38.8
COCCn1ccnc1CN1CCc2[nH]cnc2C1c1ccccn1 (centres undefined),19.11,3.605
CCc1c(C)sc(NC(=O)CN2CCN(CC)CC2)c1C(=O)OC,16.81,103.2
COc1ccc(F)c(CN2CCCC(O)(CNCc3ccon3)C2=O)c1 (centres undefined),1.804,-15.54
O=C(CC(F)(F)F)Nc1cc(F)ccc1OCC1CCCO1 (centres undefined),5.114,-11.63
CCOC(=O)c1ccc(NC(=O)c2cc3c([nH]c2=O)CCCC3)cc1,10.05,-1.413
O=C1CCOC[C@]2(CN(Cc3ccccc3)C[C@H]2c2ccccc2)N1,13.52,-16.23
Cc1cccc2cc(CO)c(N3Cc4cnc(C(C)(C)C)nc4C3)nc12,4.569,9.597
COc1ccc(-c2ncc(-c3nccn3CCN(C)C)cn2)cc1,13.11,-8.29
CCOc1ccc(Cl)cc1C(C(=O)O)N1CCC(CO)CC1 (centres undefined),7.843,-16.21
COCC(=O)N1CC(c2ccnc(Nc3ccc(C)cn3)n2)C1,7.074,-1.498
O=C(CCc1ccncc1)Nc1ccc(OCC2CC2)cc1,18.82,5.485
Cc1cc(C)c(CNC(=O)NC2CCOCC2)c(=O)[nH]1,23.92,2.223

5 of the entries, repeated:

For Cc1cc(C2CCCN(C(=O)c3ccc(Cl)o3)C2)n[nH]1 (centres undefined) the result was LdMetRS: 18.29%; Mtb heat-shock: -4.913%.
For CN1CCC(c2cncc(Cl)n2)CC1 the result was LdMetRS: 14.36%; Mtb heat-shock: -5%.
For CCc1oc(C(=O)N[C@@H]2c3ccccc3C[C@@H]2O)cc1C the result was LdMetRS: 7.588%; Mtb heat-shock: 9.754%.
For CCCn1nc2c(cc1=O)CN(CC(=O)Nc1cc(C)no1)CC2 the result was LdMetRS: 13.86%; Mtb heat-shock: 6.621%.
For c1cnn(Cc2ccc(CN3CCC4(CCCNC4)C3)cc2)c1 (centres undefined) the result was LdMetRS: 2.676%; Mtb heat-shock: -42.87%.